{"source": "paper PMC7552397", "about": "“Crystal structure of caspase-11 CARD provides insights into caspase-11 activation” (Cell Discovery, 2020)", "key": {"[1]": {"molecular_target": "MBP-tagged caspase-11 CARD, residues 11–101, V13A L14A L17A V21A (VLLV-CARD^aa11–101) (murine) (UniProt P70343)", "test": "SEC-MALS; DAWN HELEOS 8+, room temperature, samples at 1 mg/mL in 250 mM NaCl, 10 mM Tris-HCl pH 8.0; ASTRA analysis; both purified"}, "[2]": {"molecular_target": "MBP-tagged caspase-11 CARD, residues 11–101, V13A L14A L17A V21A (VLLV-CARD^aa11–101) (murine) (UniProt P70343)", "test": "SEC; gel filtration on Superdex 200, 250 mM NaCl, 10 mM Tris-HCl pH 8.0; MBP-tagged proteins, 1 mg each where told; both purified"}, "[3]": {"molecular_target": "MBP-tagged caspase-11 CARD, residues 1–59 (WT-CARD^aa1–59) (murine) (UniProt P70343)", "test": "SEC; gel filtration on Superdex 200, 250 mM NaCl, 10 mM Tris-HCl pH 8.0; MBP-tagged proteins, 1 mg each where told; both purified"}, "[4]": {"molecular_target": "MBP-tagged caspase-11 CARD, residues 11–59 (WT-CARD^aa11–59) (murine) (UniProt P70343)", "test": "SEC; gel filtration on Superdex 200, 250 mM NaCl, 10 mM Tris-HCl pH 8.0; MBP-tagged proteins, 1 mg each where told; both purified"}}, "note": "These are yes or no findings as the source states them, for the method shown. Tags and fused reporters may be left off the sequences shown."}
{"binder": "MBP-tagged caspase-11 CARD, residues 11–101, V13A L14A L17A V21A (VLLV-CARD^aa11–101) (domain or fragment, UniProt P70343 11-101) LKAAEQAGKEALTEYLEKLVQSNVLKLKEEDKQKFNNAERSDKRWVFVDAMKKKHSKVGEMLLQTFFSVDPGSHHGEANLEMEEPEESLNT", "values": [{"measurement": "binding", "setting": "[1]", "result": "no binding (tested: 1 mg/mL)"}, {"measurement": "binding", "setting": "[2]", "result": "no binding"}]}
{"binder": "MBP-tagged caspase-11 CARD, residues 1–59 (WT-CARD^aa1–59) (domain or fragment, UniProt P70343 1-59) MAENKHPDKPLKVLEQLGKEVLTEYLEKLVQSNVLKLKEEDKQKFNNAERSDKRWVFVD", "values": [{"measurement": "binding", "setting": "[3]", "result": "no binding (tested: 1 mg)"}]}
{"binder": "LKVLEQLGKEVLTEYLEKLVQSNVLKLKEEDKQKFNNAERSDKRWVFVD (domain or fragment, UniProt P70343 11-59)", "note": "[MBP-tagged caspase-11 CARD, residues 11–59 (WT-CARD^aa11–59)]", "values": [{"measurement": "binding", "setting": "[4]", "result": "no binding (tested: 1 mg)"}]}
